{
  "sequences": {"note": "The chains behind the UniProt entries cited, without tags or fusion partners. Where a name states a change or a piece, a line headed by the entry shows the natural chain unless it says otherwise.", "UniProt O96028": "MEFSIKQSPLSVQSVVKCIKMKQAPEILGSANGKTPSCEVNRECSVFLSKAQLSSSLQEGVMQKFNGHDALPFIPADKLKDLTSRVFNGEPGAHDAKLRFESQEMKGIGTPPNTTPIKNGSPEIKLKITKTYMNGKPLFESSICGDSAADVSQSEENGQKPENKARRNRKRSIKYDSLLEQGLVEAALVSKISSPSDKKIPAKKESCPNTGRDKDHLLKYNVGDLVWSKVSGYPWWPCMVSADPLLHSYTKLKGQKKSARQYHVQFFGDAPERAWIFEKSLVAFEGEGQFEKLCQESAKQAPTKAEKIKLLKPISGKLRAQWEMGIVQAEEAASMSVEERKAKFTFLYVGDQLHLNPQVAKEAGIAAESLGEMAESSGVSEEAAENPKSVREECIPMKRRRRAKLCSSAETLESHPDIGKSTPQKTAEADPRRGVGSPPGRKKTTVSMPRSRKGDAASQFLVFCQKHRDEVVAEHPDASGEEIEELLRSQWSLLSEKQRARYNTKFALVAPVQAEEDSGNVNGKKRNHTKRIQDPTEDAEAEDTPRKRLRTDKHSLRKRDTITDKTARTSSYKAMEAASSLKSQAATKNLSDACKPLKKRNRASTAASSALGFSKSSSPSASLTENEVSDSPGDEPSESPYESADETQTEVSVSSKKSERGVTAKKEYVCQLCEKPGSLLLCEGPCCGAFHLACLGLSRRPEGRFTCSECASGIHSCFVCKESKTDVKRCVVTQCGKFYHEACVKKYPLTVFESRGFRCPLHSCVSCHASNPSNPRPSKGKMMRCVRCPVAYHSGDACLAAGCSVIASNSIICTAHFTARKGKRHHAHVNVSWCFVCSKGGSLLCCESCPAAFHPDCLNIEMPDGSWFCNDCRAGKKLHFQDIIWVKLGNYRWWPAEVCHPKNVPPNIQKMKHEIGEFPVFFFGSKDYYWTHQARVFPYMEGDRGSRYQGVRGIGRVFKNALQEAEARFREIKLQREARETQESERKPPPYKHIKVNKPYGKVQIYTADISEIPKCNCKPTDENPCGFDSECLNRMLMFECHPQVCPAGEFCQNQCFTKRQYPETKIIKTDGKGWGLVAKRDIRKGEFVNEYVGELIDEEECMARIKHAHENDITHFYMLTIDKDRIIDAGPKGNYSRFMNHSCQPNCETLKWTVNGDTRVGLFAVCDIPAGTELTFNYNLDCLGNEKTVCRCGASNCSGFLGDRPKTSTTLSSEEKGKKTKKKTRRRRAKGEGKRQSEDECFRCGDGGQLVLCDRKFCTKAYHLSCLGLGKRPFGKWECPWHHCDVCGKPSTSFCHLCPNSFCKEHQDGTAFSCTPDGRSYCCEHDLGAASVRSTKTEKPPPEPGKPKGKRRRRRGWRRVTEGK"},
  "source": "PubChem BioAssay AID1053173",
  "about": "(Broad Institute, 2014)",
  "note": "The whole screen tested about 1,500 compounds, of which about 390 (26%) were called active. Inconclusive means that the source gave no clear call. Such entries were picked first, then a sample of the others. How the calls were made is not given here.",
  "data": [
    {"target": "Histone-lysine N-methyltransferase NSD2 (Homo sapiens) (UniProt O96028)", "assay": "blockers of NSD2 H4 peptide methylation – biochemical, AlphaScreen, cherry-picked samples, dose response (AID 1053173);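 further: 0% = neutral control wells and -100% = positive control wells on each plate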", "conditions": "120 min; at 10 µM (top of the series) unless noted", "values": [
      {"smiles": "COc1ccc(CNC(=O)CCCN2C(=O)NC3(CCCC3)C2=O)cc1", "activity change, negative = inhibition": "inactive: 4.98%"},
      {"smiles": "Fc1ccc(N2CCN(c3ccc4c(C(F)(F)F)cc(C(F)(F)F)nc4n3)CC2)cc1", "activity change, negative = inhibition": "inconclusive: -10.7% [at 5 µM]"},
      {"smiles": "COc1ccc2c3c(cccc13)N(C)N=C2C", "activity change, negative = inhibition": "inconclusive: -62.3%"},
      {"smiles": "CC(=O)Nc1ccc(NC2=C/C(=N/S(=O)(=O)c3cccs3)c3ccccc3C2=O)cc1", "activity change, negative = inhibition": "inconclusive: -93.2%"}
    ]}
  ]
}
